We go through 58 compounds from PubChem BioAssay AID2685 (National Center for Advancing Translational Sciences (NCATS), 2010).

The nature of this assay: qHTS Assay for Lipid Storage Modulators in Drosophila S3 Cells.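 On cell number change: cells counted by Cell Tracker Red CMTPX staining in the red channel.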 As to conditions: BODIPY lipid droplet fluorescence, 18-24 h; for cell number change: measured here: cell count max response, cells fed with added oleic acid. The procedure, abridged:
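Drosophila S3 cells loaded with oleic acid (400 uM, as added) and compounds at several concentrations; lipid droplets imaged by 488-nm laser-scanning cytometry, 500–530 nm intensity and object ratio to cell channel. Percent activity normalized to 20 uM Triacsin C.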
A general note: In qHTS, concentration-response curves come from the screen itself.

Where [1] appears, read: measured here: cell number channel AC50, cells fed with added oleic acid.
[2] abbreviates: measured here: lipid fluorescence (Fed channel) AC50, cells fed with added oleic acid.

Broadly, the AC50 is the concentration giving half of the maximal activity seen. High values mean weaker potency, low ones greater potency.

This is one part of the list. Further columns of the screen follow, without active or inactive calls. Compounds called inactive in the main read-out are mostly missing here. Words in brackets tell the shape of the fitted curve; partial curves, single points and poor fits give uncertain potencies.

For `Cc1ccc2nc(N3CCN(c4ccccc4)CC3)c(C=O)c(=O)n2c1`, the cell number change was found to be 66.8%. In addition, the AC50 under setting [1] is 8.2 µM [rising, partial curve]. Under setting [2], the AC50 is 14.6 µM [rising, partial curve].

For the compound `CCOc1ccc(C(CC(=O)O)NC(=O)COc2ccccc2)cc1OC` (configuration not stated), the cell number change was 10.5%. Besides, the AC50 under setting [1] was 4.61 µM [falling, single point]. For the same compound, under setting [2], the AC50 is 4.11 µM [falling, single point].

As for `CCOC(=O)CC(=O)CSc1nnc(Cn2c(=O)sc3ccccc32)n1C`, the cell number change was -18.2%. Besides, the concentration at half-maximal activity (AC50) under setting [2] was 0.82 µM [falling, full curve, poor fit].

Turning to `O=C(COC(=O)c1ccccn1)Nc1nc(-c2ccccc2)cs1`, the cell number change was -22.4%. Moreover, under setting [2], the AC50 was 6.31 µM [falling, partial curve].

Turning to `CCN(CC(=O)Nc1ccc(OC)cc1)CC(=O)Nc1ccc(Cl)cc1F`, under setting [2], the AC50 was 1.64 µM [rising, partial curve].

On to `CC(=O)c1ccc(OCC(C)C)c(CC(C(N)=O)C(N)=O)c1`, for which the cell number change is 3.46%. In addition, under setting [2], the AC50 was 5.8 µM [falling, single point].

On to `CCOC(=O)C1CCCN(C(=O)c2ccco2)C1` (configuration not stated), for which the cell number change is 6.49%.

With `Cc1cc(C)c2c(-n3cccc3)c(C(=O)NNS(=O)(=O)c3ccc(Cl)cc3)sc2n1`, the cell number change was determined as 6.9%. Also, under setting [2], the AC50 was 29.1 µM [rising, single point].

As for `CCc1ccc(OCC(=O)NC(NC(=S)Nc2ccc(Cl)cc2)C(Cl)(Cl)Cl)cc1` (configuration not stated), the cell number change is -77.3%. Moreover, under setting [1], the AC50 is 32.6 µM [falling, single point]. Under setting [2], the AC50 was 29.1 µM [falling, partial curve].

For the compound `O=C(Nc1nnc(-c2ccc(Cl)cc2)o1)NC1CCCCC1`, the cell number change was 24.7%. Further, the AC50 under setting [1] is 0.651 µM [falling, single point].

With `CCCOc1ccc(-c2csc3ncn(Cc4ccc(C(=O)O)cc4)c(=O)c23)cc1`, the cell number change was found to be 106%. For the same compound, under setting [1], the AC50 was 4.11 µM [falling, single point]. The AC50 under setting [2] is 5.17 µM [falling, single point].

As for `Cc1ccccc1N=C/C=C1\N(C)c2ccccc2C1(C)C`, the cell number change was -23.8%. The half-maximal activity concentration (AC50) under setting [2] is 29.1 µM [falling, single point].

In the case of `Cc1cccc2c1N(CC(=O)OC(C)C)C(=O)C2=O`, the cell number change is -14.5%.

Take `CNc1ccc2nnc(C(F)(F)C(F)(F)C(F)(F)F)n2n1`: the cell number change is 8.98%.

On to `C[C@@H](C(=O)Nc1ccc2ccccc2c1)[C@@H]1C[C@@]1(C)[C@@H](NC(=O)c1ccccc1)c1ccccc1`, for which the cell number change is 0.312%. For the same compound, the AC50 under setting [1] is 0.146 µM [rising, full curve, poor fit]. Moreover, under setting [2], the AC50 is 9.2 µM [rising, partial curve].

For the compound `C(=N\Nc1ccc2nncn2n1)/c1ccccn1`, the cell number change was determined as 6.78%. For the same compound, the AC50 under setting [1] is 0.184 µM [falling, full curve]. In addition, the AC50 under setting [2] is 0.184 µM [falling, full curve].

As to `Cn1c(SCc2cccc(C(F)(F)F)c2)nnc1-c1ccco1`, the cell number change is 94.5%. For the same compound, the AC50 under setting [1] is 6.51 µM [rising, partial curve]. For the same compound, the concentration at half-maximal activity (AC50) under setting [2] is 4.11 µM [rising, single point].

Regarding `Cc1cc(C)c(C2=Nn3c(C)nnc3SC2C)cc1C` (configuration not stated), the cell number change was -15.2%. Besides, the half-maximal activity concentration (AC50) under setting [2] was 6.51 µM [rising, single point].

Consider `Cc1ccc2cc(C#N)c(NCCCNC(=O)C3CCCO3)nc2c1` (configuration not stated), for which the concentration at half-maximal activity (AC50) by setting is: under setting [1], 3.66 µM [rising, partial curve]; under setting [2], 5.17 µM [rising, partial curve].

Turning to `CCOC(=O)c1cnn(-c2ncnc3sc(CC)cc23)c1N`, the cell number change was found to be 16.5%. Moreover, the AC50 under setting [2] is 0.366 µM [rising, full curve, poor fit].

As for `O=C(Cc1nc2ccccc2[nH]c1=O)c1ccccc1`, the cell number change was 109%. Besides, the AC50 under setting [1] is 8.2 µM [rising, partial curve].

Consider `CCSc1nnc(NC(=O)CSc2nc(C)cc(C)n2)s1`, for which the cell number change worked out at 23.4%. For the same compound, under setting [2], the AC50 is 1.84 µM [falling, partial curve].

`COc1ccc2nc(NC(=O)c3c(C)noc3C)sc2c1`: the cell number change turned out to be 12.9%. For the same compound, the AC50 under setting [1] was 0.164 µM [falling, full curve, poor fit]. For the same compound, under setting [2], the AC50 is 0.651 µM [rising, partial curve, poor fit].

Turning to `O=C(CCS(=O)(=O)c1ccccc1)N(CCCN1CCOCC1)c1nc2ccc(F)cc2s1`, the cell number change came to 124%. Moreover, under setting [1], the concentration at half-maximal activity (AC50) is 20.6 µM [rising, partial curve].

Turning to `O=C(CCNS(=O)(=O)c1ccccc1C(F)(F)F)N1CCN(S(=O)(=O)c2cccc(F)c2)CC1`, the cell number change stood at 16.7%.

With `CCCCc1[nH]c(=O)c(C#N)c2c1CSC(C)(C)C2`, the cell number change turned out to be 2.87%. In addition, the AC50 under setting [2] is 0.517 µM [rising, full curve].

On to `COc1ccc(S(=O)(=O)N2CCN(C(=O)NCc3ccc(C)cc3)CC2)cc1`, for which the cell number change amounted to 19.8%.

For the compound `CCN(C(=O)COC(=O)c1cccc(S(=O)(=O)NCc2ccccc2)c1)c1ccccc1`, the cell number change turned out to be 80%. Besides, the AC50 under setting [1] was 29.1 µM [rising, single point].

Take `Cc1ccc(S(=O)(=O)N(C)C)cc1NC(=O)COC(=O)C1CC1`: the cell number change was -50%. Besides, the AC50 under setting [1] was 0.13 µM [falling, full curve, poor fit].

With `CCCOc1ccc(N2C(=O)CC(N3CCN(c4ccccc4OC)CC3)C2=O)cc1` (configuration not stated), the cell number change was -7.38%. The AC50 under setting [2] was 7.31 µM [falling, single point].

On to `CC(=O)n1c(Cl)c(NC(=O)CCl)c2ccccc21`, for which the cell number change amounted to 16.8%. The half-maximal activity concentration (AC50) under setting [2] is 0.082 µM [falling, full curve, poor fit].

As for `Cc1cccc(OCCNC(=O)CSc2ccc(C(F)(F)F)cc2[N+](=O)[O-])c1`, the cell number change is 19.3%. In addition, the AC50 under setting [2] is 29.1 µM [rising, single point].

In the case of `Cc1cnc(SCc2cnc(C)nc2N)nc1`, the cell number change was determined as 7.01%. The AC50 under setting [1] was 3.26 µM [falling, single point]. The AC50 under setting [2] was 2.06 µM [falling, partial curve].

In the case of `COc1ccc(CN(C)C(=O)C2CC(=O)N(c3ccc4c(c3)OCCO4)C2)c(OC)c1` (configuration not stated), the cell number change is -12.3%. Also, the AC50 under setting [2] is 0.00461 µM [rising, full curve, poor fit].

With `Cc1cccc(NC(=O)Nc2cccc3ccccc23)c1`, the cell number change was determined as 19.6%. For the same compound, under setting [2], the AC50 was 18.4 µM [rising, single point].

On to `O=C(Nc1cccc(C(=O)N2CCN(c3ccccc3)CC2)c1)c1ccco1`, for which the cell number change is -15.9%. Also, under setting [2], the half-maximal activity concentration (AC50) was 0.58 µM [rising, full curve, poor fit].

In the case of `O=C1C2CCCN2C(=O)N1CCN1CCN(CCO)CC1` (configuration not stated), the cell number change stood at 7.01%. Under setting [2], the AC50 was 29.1 µM [falling, single point].

As to `COc1ccc(C(=O)NCCc2c[nH]c3ccccc23)cc1S(=O)(=O)N1CCOCC1`, the cell number change was -18.9%. The AC50 under setting [2] is 0.651 µM [rising, single point].

For the compound `CN(C)CCN(Cc1cccs1)S(=O)(=O)c1csc(C(N)=O)c1`, the cell number change turned out to be 5.07%.

Regarding `CC(CN1c2ccccc2Sc2ccccc21)N(C)C` (configuration not stated), the cell number change is -12.5%. Moreover, the concentration at half-maximal activity (AC50) under setting [2] is 14.6 µM [rising, partial curve].

Take `O=C(Cc1cccs1)N(c1ccccc1)C1C=CS(=O)(=O)C1` (configuration not stated): the cell number change turned out to be 2.07%. In addition, the AC50 under setting [2] was 25.9 µM [falling, single point].

Regarding `CC(Oc1ccc2c(-c3ccccc3)cc(=O)oc2c1)C(=O)N1CCC[C@@H]1C(N)=O` (some centres not stated), the cell number change is -12.9%. Also, under setting [2], the AC50 was 0.082 µM [rising, full curve, poor fit].

Regarding `Cc1cc(/C=C2/NC(=O)N(c3ccccc3)C2=O)c(C)n1-c1cccnc1`, the cell number change was -35%. Further, the AC50 under setting [1] is 9.2 µM [falling, partial curve]. Further, the AC50 under setting [2] was 29.1 µM [rising, single point].

On to `CC(=O)N(c1ccc(N(C(C)=O)S(=O)(=O)c2cccs2)cc1)S(=O)(=O)c1cccs1`, for which the cell number change was -73.4%. Further, the AC50 under setting [1] is 20.6 µM [falling, partial curve]. For the same compound, under setting [2], the AC50 was 16.4 µM [falling, partial curve].

In the case of `Cc1ccc2c(CC(=O)NCC(=O)Nc3c(C)cccc3C)coc2c1`, under setting [2], the AC50 was 5.17 µM [rising, single point].

On to `CNC1(c2nnnn2-c2c(C)cccc2C)CCOC(C)(C)C1` (configuration not stated), for which the cell number change worked out at 28.5%. Moreover, the AC50 under setting [2] is 0.82 µM [rising, full curve, poor fit].

For `Cc1ccc(NC(=O)COC(=O)c2ccc([N+](=O)[O-])o2)cc1S(=O)(=O)N1CCCCCC1`, the cell number change is -36.4%. The AC50 under setting [1] was 0.13 µM [falling, full curve].

Regarding `CC1CCN(C(=O)COC(=O)c2ccc(Br)o2)CC1`, the cell number change is -0.527%.

`Cc1ccc(C)c(N2CCN(C(=O)Cn3ncc4c([nH]c5ccc(C)cc54)c3=O)CC2)c1`: the cell number change was -30.7%. Moreover, under setting [1], the AC50 is 36.6 µM [falling, single point].

Take `Cc1nc(-c2ccccc2)sc1-c1nc(-c2cccs2)ncc1S(=O)(=O)c1ccccc1`: the cell number change was 14.7%. The AC50 under setting [2] was 0.411 µM [rising, single point].

As to `O=[N+]([O-])c1cccc(S(=O)(=O)N2CCC(c3nc(-c4ccncc4)no3)CC2)c1`, the AC50 under setting [1] is 6.51 µM [rising, single point].

Turning to `COc1cc(Cl)c(C)cc1NC(=O)c1ccc(S(C)(=O)=O)cc1`, the AC50 under setting [1] was 6.51 µM [falling, single point].

Take `O=C(NCCc1ccccc1)C(=O)c1c(-c2ccccc2)[nH]c2ccccc12`: the cell number change came out at 32.6%. Moreover, under setting [1], the AC50 was 18.4 µM [rising, single point].

Consider `COCCn1nnnc1C(C(C)C)N1CCN(C(=O)c2ccco2)CC1` (configuration not stated), for which the cell number change was 5.7%. The AC50 under setting [2] was 1.64 µM [falling, partial curve].

As for `O=C(c1cc2nc(-c3ccco3)cc(C(F)(F)F)n2n1)N1CCN(c2ccc(F)cc2)CC1`, the cell number change is -3.98%. Besides, the AC50 under setting [2] was 0.00411 µM [rising, full curve, poor fit].

With `Cc1cc(C(=O)N/N=C2\CCCC(C)C2)n[nH]1` (configuration not stated), the cell number change came out at 14.4%. Besides, under setting [2], the AC50 was 18.4 µM [falling, single point].

With `Cc1ccc(SCC(=O)OCC(=O)NCC2CCCCC2)cc1C`, the cell number change amounted to 1.51%. Moreover, the concentration at half-maximal activity (AC50) under setting [2] was 23.1 µM [falling, single point].

For `Cc1ccsc1/C=N/NC(=O)CNC(=O)c1ccc(S(=O)(=O)N(C)C)cc1`, the cell number change is -21.2%. In addition, the AC50 under setting [1] is 0.146 µM [falling, full curve, poor fit]. Also, the AC50 under setting [2] was 0.164 µM [falling, full curve, poor fit].
